This is one part of the list.
What was measured:
Assay in all cases: glycan array binding signal (z-score within array); higher = stronger binding
Settings in all cases: glycan notation: IUPAC condensed, linker removed
[1] = molecular target: Neu5Ac(a2-6)Gal(b1-4)GlcNAc(b1-2)Man(a1-3)[Man(a1-6)]Man(b1-4)GlcNAc(b1-4)GlcNAc
Procedure, shortened: (§1)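 The binding signal is a Z-score computed within each array and averaged over linkers. Arrays of the same protein sequence at different concentrations or buffers were also averaged together. Data originate from 3228 arrays in the Consortium for Functional Glycomics database, kept only where the protein sequence was available.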

[2] = molecular target: Neu5Ac(a2-6)Gal(b1-4)GlcNAc(b1-2)Man(a1-3)[Neu5Ac(a2-3)Gal(b1-4)GlcNAc(b1-2)Man(a1-6)]Man(b1-4)GlcNAc(b1-4)GlcNAc
Procedure, shortened: as §1

[3] = molecular target: Neu5Ac(a2-6)Gal(b1-4)GlcNAc(b1-2)Man(a1-3)[Neu5Ac(a2-6)Gal(b1-4)GlcNAc(b1-2)Man(a1-6)]Man(b1-4)GlcNAc(b1-4)GlcNAc
Procedure, shortened: as §1

[4] = molecular target: Neu5Ac(a2-6)Gal(b1-4)GlcNAc(b1-2)Man(a1-3)[Neu5Ac(a2-6)Gal(b1-4)GlcNAc(b1-2)Man(a1-6)]Man(b1-4)GlcNAc(b1-4)[Fuc(a1-6)]GlcNAc
Procedure, shortened: as §1

[5] = molecular target: Neu5Ac(a2-6)Gal(b1-4)GlcNAc(b1-2)Man(a1-6)Man(b1-4)GlcNAc(b1-4)GlcNAc
Procedure, shortened: as §1

[6] = molecular target: Neu5Ac(a2-6)Gal(b1-4)GlcNAc(b1-2)Man(a1-6)[Gal(b1-4)GlcNAc(b1-2)Man(a1-3)]Man(b1-4)GlcNAc(b1-4)GlcNAc
Procedure, shortened: as §1

[7] = molecular target: Neu5Ac(a2-6)Gal(b1-4)GlcNAc(b1-2)Man(a1-6)[GlcNAc(b1-2)Man(a1-3)]Man(b1-4)GlcNAc(b1-4)GlcNAc
Procedure, shortened: as §1

[8] = molecular target: Neu5Ac(a2-6)Gal(b1-4)GlcNAc(b1-2)Man(a1-6)[Man(a1-3)]Man(b1-4)GlcNAc(b1-4)GlcNAc
Procedure, shortened: as §1

[9] = molecular target: Neu5Ac(a2-6)Gal(b1-4)GlcNAc(b1-2)[Neu5Ac(a2-6)Gal(b1-4)GlcNAc(b1-4)]Man(a1-3)[GlcNAc(b1-4)][Neu5Ac(a2-6)Gal(b1-4)GlcNAc(b1-2)[Neu5Ac(a2-6)Gal(b1-4)GlcNAc(b1-6)]Man(a1-6)]Man(b1-4)GlcNAc(b1-4)GlcNAc
Procedure, shortened: as §1

[10] = molecular target: Neu5Ac(a2-6)Gal(b1-4)GlcNAc(b1-2)[Neu5Ac(a2-6)Gal(b1-4)GlcNAc(b1-4)]Man(a1-3)[GlcNAc(b1-4)][Neu5Ac(a2-6)Gal(b1-4)GlcNAc(b1-4)Man(a1-6)]Man(b1-4)GlcNAc(b1-4)GlcNAc
Procedure, shortened: as §1

[11] = molecular target: Neu5Ac(a2-6)Gal(b1-4)GlcNAc(b1-2)[Neu5Ac(a2-6)Gal(b1-4)GlcNAc(b1-6)]Man(a1-6)[Neu5Ac(a2-6)Gal(b1-4)GlcNAc(b1-2)Man(a1-3)][GlcNAc(b1-4)]Man(b1-4)GlcNAc(b1-4)GlcNAc
Procedure, shortened: as §1

[12] = molecular target: Neu5Ac(a2-6)Gal(b1-4)GlcNAc(b1-3)Gal(b1-3)GlcNAc
Procedure, shortened: as §1

[13] = molecular target: Neu5Ac(a2-6)Gal(b1-4)GlcNAc(b1-3)Gal(b1-4)GlcNAc
Procedure, shortened: as §1

[14] = molecular target: Neu5Ac(a2-6)Gal(b1-4)GlcNAc(b1-3)Gal(b1-4)GlcNAc(b1-2)Man(a1-3)[Neu5Ac(a2-6)Gal(b1-4)GlcNAc(b1-3)Gal(b1-4)GlcNAc(b1-2)Man(a1-6)]GalNAc
Procedure, shortened: as §1

[15] = molecular target: Neu5Ac(a2-6)Gal(b1-4)GlcNAc(b1-3)Gal(b1-4)GlcNAc(b1-3)Gal(b1-4)GlcNAc
Procedure, shortened: as §1

[16] = molecular target: Neu5Ac(a2-6)Gal(b1-4)GlcNAc(b1-3)Gal(b1-4)GlcNAc(b1-3)Gal(b1-4)GlcNAc(b1-2)Man(a1-3)[Neu5Ac(a2-6)Gal(b1-4)GlcNAc(b1-3)Gal(b1-4)GlcNAc(b1-3)Gal(b1-4)GlcNAc(b1-2)Man(a1-6)]GalNAc
Procedure, shortened: as §1

[17] = molecular target: Neu5Ac(a2-6)Gal(b1-4)GlcNAc(b1-3)Gal(b1-4)GlcNAc(b1-3)GalNAc
Procedure, shortened: as §1

[18] = molecular target: Neu5Ac(a2-6)Gal(b1-4)GlcNAc(b1-3)Gal(b1-4)GlcNAc(b1-3)[Neu5Ac(a2-6)Gal(b1-4)GlcNAc(b1-3)Gal(b1-4)GlcNAc(b1-6)]GalNAc
Procedure, shortened: as §1

[19] = molecular target: Neu5Ac(a2-6)Gal(b1-4)GlcNAc(b1-3)Gal(b1-4)GlcNAc(b1-6)[Gal(b1-3)]GalNAc
Procedure, shortened: as §1

[20] = molecular target: Neu5Ac(a2-6)Gal(b1-4)GlcNAc(b1-3)Gal(b1-4)[Fuc(a1-3)]GlcNAc(b1-3)Gal(b1-4)[Fuc(a1-3)]GlcNAc
Procedure, shortened: as §1

[21] = molecular target: Neu5Ac(a2-6)Gal(b1-4)GlcNAc(b1-3)GalNAc
Procedure, shortened: as §1

[22] = molecular target: Neu5Ac(a2-6)Gal(b1-4)GlcNAc(b1-3)[Neu5Ac(a2-6)Gal(b1-4)GlcNAc(b1-6)]GalNAc
Procedure, shortened: as §1

[23] = molecular target: Neu5Ac(a2-6)Gal(b1-4)GlcNAc(b1-6)GalNAc
Procedure, shortened: as §1

[24] = molecular target: Neu5Ac(a2-6)Gal(b1-4)GlcNAc(b1-6)[Gal(b1-3)GlcNAc(b1-3)]Gal(b1-4)Glc
Procedure, shortened: as §1

[25] = molecular target: Neu5Ac(a2-6)Gal(b1-4)GlcNAc(b1-6)[Gal(b1-3)]GalNAc
Procedure, shortened: as §1

[26] = molecular target: Neu5Ac(a2-6)Gal(b1-4)GlcNAc6S
Procedure, shortened: as §1

Neu5Ac(a2-6)GalNAc = molecular target: Neu5Ac(a2-6)GalNAc
Procedure, shortened: as §1

[27] = molecular target: Neu5Ac(a2-6)GalNAc(b1-4)GlcNAc
Procedure, shortened: as §1

[28] = molecular target: Neu5Ac(a2-6)GalNAc(b1-4)GlcNAc6S
Procedure, shortened: as §1

[29] = molecular target: Neu5Ac(a2-6)GlcNAc(b1-4)GlcNAc
Procedure, shortened: as §1

[30] = molecular target: Neu5Ac(a2-6)GlcNAc(b1-4)GlcNAc(b1-4)GlcNAc
Procedure, shortened: as §1

B1: AT1G77380(17) (Arabidopsis thaliana), Q39134 (protein)
chain: MVQNHQTVLAVDMPQTGGSKYLDDDGKNKRTGSVWTASAHIITAVIGSGVLSLAWATAQLGWLAGPVVMLLFSAVTYFTSSLLAACYRSGDPISGKRNYTYMDAVRSNLGGVKVTLCGIVQYLNIFGVAIGYTIASAISMMAIKRSNCFHKSGGKDPCHMNSNPYMIAFGLVQILFSQIPDFDQLWWLSILAAVMSFTYSSAGLALGIAQVVVNGKVKGSLTGISIGAVTETQKIWRTFQALGDIAFAYSYSIILIEIQDTVKSPPSEEKTMKKATLVSVSVTTMFYMLCGCMGYAAFGDLSPGNLLTGFGFYNPYWLLDIANAAIVIHLIGAYQVYCQPLFAFIEKQASIQFPDSEFIAKDIKIPIPGFKPLRLNVFRLIWRTVFVIITTVISMLLPFFNDVVGLLGALGFWPLTVYFPVEMYIAQKKIPRWSTRWVCLQVFSLGCLVVSIAAAAGSIAGVLLDLKSYKPFRSEY
[1]
  glycan array binding signal (z-score): -0.896
[2]
  glycan array binding signal (z-score): -0.533
[3]
  glycan array binding signal (z-score): 0.247
[4]
  glycan array binding signal (z-score): -0.502
[5]
  glycan array binding signal (z-score): -0.081
[6]
  glycan array binding signal (z-score): -0.965
[7]
  glycan array binding signal (z-score): -0.321
[8]
  glycan array binding signal (z-score): -0.006
[9]
  glycan array binding signal (z-score): -0.506
[10]
  glycan array binding signal (z-score): -0.156
[11]
  glycan array binding signal (z-score): 0.421
[12]
  glycan array binding signal (z-score): -0.399
[13]
  glycan array binding signal (z-score): -0.821
[14]
  glycan array binding signal (z-score): -0.683
[15]
  glycan array binding signal (z-score): 0.309
[16]
  glycan array binding signal (z-score): -0.363
[17]
  glycan array binding signal (z-score): -0.693
[18]
  glycan array binding signal (z-score): -0.695
[19]
  glycan array binding signal (z-score): -0.578
[20]
  glycan array binding signal (z-score): 0.862
[21]
  glycan array binding signal (z-score): -0.177
[22]
  glycan array binding signal (z-score): -0.945
[23]
  glycan array binding signal (z-score): -0.726
[24]
  glycan array binding signal (z-score): 0.023
[25]
  glycan array binding signal (z-score): -0.819
[26]
  glycan array binding signal (z-score): -0.74
Neu5Ac(a2-6)GalNAc
  glycan array binding signal (z-score): -0.601
[27]
  glycan array binding signal (z-score): -0.653
[28]
  glycan array binding signal (z-score): -0.655
[29]
  glycan array binding signal (z-score): -0.508
[30]
  glycan array binding signal (z-score): 0.349

Source: the supplement of paper PMC8728848
